According to patent US20240158498A1:
No constants are given. Whether binding was seen depends on the method and setting. Some results given as binding are weak or reduced against the parent protein; the word gives no strength.

By UniProt entry, the sequences of proteins in these tests, tags left out. Residues count along the entry.
UniProt Q9NYZ4, residues 17-363: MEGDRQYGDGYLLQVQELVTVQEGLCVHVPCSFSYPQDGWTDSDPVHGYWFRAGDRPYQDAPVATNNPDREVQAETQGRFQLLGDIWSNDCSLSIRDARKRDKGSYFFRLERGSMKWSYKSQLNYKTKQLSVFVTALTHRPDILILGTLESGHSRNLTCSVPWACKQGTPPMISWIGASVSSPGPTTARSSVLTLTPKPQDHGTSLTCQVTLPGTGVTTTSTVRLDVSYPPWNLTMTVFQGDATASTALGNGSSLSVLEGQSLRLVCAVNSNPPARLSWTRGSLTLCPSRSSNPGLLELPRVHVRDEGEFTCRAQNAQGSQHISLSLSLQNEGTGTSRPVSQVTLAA

Tests used:
[1] = target: Siglec-8 extracellular domain (ECD) (human) (UniProt Q9NYZ4); experiment: ELISA, Siglec-8-ECD coated on the plate, after 1 week at 37 C
[2] = target: Siglec-8 extracellular domain (ECD) (human) (UniProt Q9NYZ4); experiment: ELISA, Siglec-8-ECD coated on the plate, time 0
[3] = target: Siglec-8 extracellular domain (ECD) (human) (UniProt Q9NYZ4); experiment: ELISA, Siglec-8-ECD coated on the plate, formulations of Table A

Measured: binding

B1: anti-Siglec-8 antibody HEKF (antibody, human IgG1, kappa, V domains shown)
VH: EVQLVESGGGLVQPGGSLRLSCAASGFSLTIYGAHWVRQAPGKGLEWVGVIWAGGSTNYNSALMSRFTISKDNSKNTVYLQMNSLRAEDTAVYYCARDGSSPYYYSMEYWGQGTTVTVSS
VL: EIVLTQSPATLSLSPGERATLSCSATSSVSYMHWFQQKPGQAPRLLIYSTSNLASGIPARFSGSGSGTDYTLTISSLEPEDFAVYYCQQRSSYPFTFGPGTKLDIKR
binds: [1] | [2] | [3]
